For part of these data: No signal at the amounts used counts as a negative. Protein sequences can lack the tags named with them. For part of these data: The exact form of at least one protein or probe is not confirmed.
Tests used:
[1] = molecular target: T1, HvRPA3 full length (Haloferax volcanii DS2 (wild-type)) (UniProt D4GZS1); assay: analytical SEC; conditions: 0.2 M KCl; SEC: 50 mM HEPES pH 7.0, 0.2, 1 or 3 M KCl; recombinant protein; residues 1-311; protein details: N-terminal 6xHis; single-stranded DNA
T1 sequence (looked up): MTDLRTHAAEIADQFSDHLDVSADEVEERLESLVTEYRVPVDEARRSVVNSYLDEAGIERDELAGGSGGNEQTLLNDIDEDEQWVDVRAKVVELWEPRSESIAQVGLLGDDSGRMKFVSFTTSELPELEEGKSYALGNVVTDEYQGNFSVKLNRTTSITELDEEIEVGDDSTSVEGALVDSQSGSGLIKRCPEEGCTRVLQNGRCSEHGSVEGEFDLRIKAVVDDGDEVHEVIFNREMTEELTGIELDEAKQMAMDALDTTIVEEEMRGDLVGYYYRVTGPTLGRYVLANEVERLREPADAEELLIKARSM

[2] = molecular target: T2, HvRPA3-NTD (OB-fold) (Haloferax volcanii DS2 (wild-type)) (UniProt D4GZS1); assay: analytical SEC; conditions: 0.2 M KCl; SEC: 50 mM HEPES pH 7.0, 0.2, 1 or 3 M KCl; recombinant protein; residues 1-163; protein details: N-terminal 6xHis; single-stranded DNA
T2 sequence (looked up): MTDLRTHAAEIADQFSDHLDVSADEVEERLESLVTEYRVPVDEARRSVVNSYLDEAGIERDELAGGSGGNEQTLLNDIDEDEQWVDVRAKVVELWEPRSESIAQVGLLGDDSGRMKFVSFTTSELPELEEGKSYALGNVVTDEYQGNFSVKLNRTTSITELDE

[3] = molecular target: T2, HvRPA3-NTD (OB-fold) (Haloferax volcanii DS2 (wild-type)); assay: fluorescence anisotropy; conditions: 3 M KCl, Hill 1.1 ± 0.2; FA: 50 mM HEPES pH 7.0, 10% glycerol, 0.03% BSA, 20 nM Cy5-oligo, 0.2, 1 or 3 M KCl, room temperature 10 min; recombinant protein; residues 1-163; protein details: N-terminal 6xHis; label: 5' Cy5; single-stranded DNA

Sequence | binding result [1] | binding result [2] | Kd [3]
GCGTGTGTGGTGGTGTGC [18mer ssDNA (SEC)] | no binding | no binding | 
GCGTGTGTGGTGGTGTGC [Cy5-18mer ssDNA (FA)] |  |  | 0.212 µM

Reference: paper PMC3438722, “DNA Binding in High Salt: Analysing the Salt Dependence of Replication Protein A3 from the Halophile Haloferax volcanii” (Archaea, 2012)
